Measured values: patent US20240036057A1, “DNA APTAMERS FOR THE DETECTION OF MONOMERIC CRP” (Universiteit Hasselt, published 2024)
Negatives hold for the conditions tested. Protein sequences can lack the tags named with them.

Legend:
[1] = target: T1, pentameric C-reactive protein (pCRP) (Homo sapiens) (UniProt P02741); experiment: SPR; settings: 200 nM aptamer; specificity control; purified native protein; protein details: BBI Solutions Cat-P100-0; single-stranded DNA
T1 sequence (looked up, limits assumed): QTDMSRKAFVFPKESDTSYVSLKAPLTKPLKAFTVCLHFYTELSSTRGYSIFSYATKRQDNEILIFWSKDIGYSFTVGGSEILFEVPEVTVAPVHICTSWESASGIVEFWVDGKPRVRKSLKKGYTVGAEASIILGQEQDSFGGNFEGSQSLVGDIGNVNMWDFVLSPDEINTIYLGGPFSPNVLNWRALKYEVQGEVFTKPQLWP

[2] = target: T1, pentameric C-reactive protein (pCRP) (Homo sapiens); experiment: EMSA; settings: capillary electrophoresis LIF mobility shift; no decrease of free aptamer peak; purified native protein; protein details: BBI Solutions Cat-P100-0; label: Alexa 488; single-stranded DNA; variant of AmC2
[3] = target: T1, pentameric C-reactive protein (pCRP) (Homo sapiens); experiment: competition with a labelled probe; settings: patient serum; mCRP reading 0 in samples with pCRP up to 390 mg/L; purified native protein; protein details: BBI Solutions Cat-P100-0; label: biotin; single-stranded DNA; variant of AmC2

Sequence	binding result [1]	also measured
GCACCAGCATATTCGATTGGGAGCGCGGGGGAGAGTAGTGGGGAACGGTGGAGAGTTGGGCTAGTAGGTGCATCAG [AmC3]	no binding	
GCACCAGCATATTCGATTGGGAGGTGTGAACGTTATGTGGTAGAGAGATGGGTGGTGGGGCTAGTAGGTGCATCAG [AmC4]	no binding	
GCACCAGCATATTCGATTGTGGCGGGTTGTGAAGGGTGGAGTATGGTCGTGTTGGTTGGGCTAGTAGGTGCATCAG [AmC2-488]		binding result [2]: no binding
GCACCAGCATATTCGATTGTGGCGGGTTGTGAAGGGTGGAGTATGGTCGTGTTGGTTGGGCTAGTAGGTGCATCAG [AmC2]	no binding	
GCACCAGCATATTCGATTGTGGCGGGTTGTGAAGGGTGGAGTATGGTCGTGTTGGTTGGGCTAGTAGGTGCATCAG [biotin-AmC2]		binding result [3]: no binding
